System: HT-29
Test: Antiproliferative activity against human HT-29 cells over expressing GLUT1 measured after 72 hrs by MTT assay
Assay type: functional, cell-based
Settings: HT-29, 72 h

Structure (SMILES): COc1cc2c(c(OC)c1OC)-c1ccc(OC)c(=O)cc1[C@@H](NC(C)=O)CC2 [COLCHICINE]
- IC50: 18 nM

Source: ChEMBL document CHEMBL5154756, “Design, synthesis and biological evaluation of colchicine glycoconjugates as tubulin polymerization inhibitors” (Bioorg Med Chem, 2022)
